# Measurements published in patent publication US20240124517 (published 2024).
# Square brackets hold non-standard residues; d marks the D form. * marks the point of attachment. Fmoc = O=C(OCC1c2ccccc2-c2ccccc21)*; NMeF = CN[C@@H](Cc1ccccc1)C(=O)O; NMeL = CN[C@@H](CC(C)C)C(=O)O; NMeV = CN[C@H](C(=O)O)C(C)C; NMeA = CN[C@@H](C)C(=O)O; Boc = CC(C)(C)OC(=O)*; Aib = CC(C)(N)C(=O)O; Sar = CNCC(=O)O; tBu = CC(C)(C)*
# Columns and labels:
# [1] = general procedure: Fmoc solid-phase peptide synthesis; CTC resin (Trt(2-Cl)resin), dipeptide-supporting; details: whole synthesis; for crude LC-MS purity: LCMS area % of the isolating reaction liquid
# [2] = general procedure: Fmoc solid-phase peptide synthesis; Sieber; details: whole synthesis, Fmoc quantitation of peptide-resin vs starting resin
# [3] = general procedure: Fmoc solid-phase peptide synthesis; aa2-028-resin; details: whole synthesis, on resin loading (Fmoc quantitation)
# [4] = general procedure: Fmoc solid-phase peptide synthesis; 2-chlorotrityl; details: whole synthesis, Fmoc quantitation of peptide-resin vs starting resin
# [5] = general procedure: Fmoc solid-phase peptide synthesis; aa2-005-resin; details: whole synthesis, on resin loading (Fmoc quantitation)
# [6] = general procedure: Fmoc solid-phase peptide synthesis; aa2-006-resin; details: whole synthesis, on resin loading (Fmoc quantitation)
# [7] = general procedure: Fmoc solid-phase peptide synthesis; aa2-009-resin; details: whole synthesis, on resin loading (Fmoc quantitation)
# [8] = general procedure: Fmoc solid-phase peptide synthesis; aa2-004-resin; details: whole synthesis, on resin loading (Fmoc quantitation)
# [9] = general procedure: Fmoc solid-phase peptide synthesis; aa2-020-resin; details: whole synthesis, on resin loading (Fmoc quantitation)
# [10] = general procedure: Fmoc solid-phase peptide synthesis; aa2-013-resin; details: whole synthesis, on resin loading (Fmoc quantitation)
# [11] = general procedure: Fmoc solid-phase peptide synthesis; aa2-014-resin; details: whole synthesis, on resin loading (Fmoc quantitation)
# [12] = general procedure: Fmoc solid-phase peptide synthesis; aa2-001-resin; details: whole synthesis, on resin loading (Fmoc quantitation)
# [13] = general procedure: Fmoc solid-phase peptide synthesis; aa2-012-resin; details: whole synthesis, on resin loading (Fmoc quantitation)
# [14] = general procedure: Fmoc solid-phase peptide synthesis; aa2-015-resin; details: whole synthesis, on resin loading (Fmoc quantitation)
# [15] = general procedure: Fmoc solid-phase peptide synthesis; aa2-024-resin; details: whole synthesis, on resin loading (Fmoc quantitation)
# [16] = general procedure: Fmoc solid-phase peptide synthesis; aa2-026-resin; details: whole synthesis, on resin loading (Fmoc quantitation)
# [17] = general procedure: Fmoc solid-phase peptide synthesis; aa2-027-resin; details: whole synthesis, on resin loading (Fmoc quantitation)
# [18] = general procedure: Fmoc solid-phase peptide synthesis; aa2-025-resin; details: whole synthesis, on resin loading (Fmoc quantitation)
# [19] = general procedure: Fmoc solid-phase peptide synthesis; aa2-019-resin; details: whole synthesis, on resin loading (Fmoc quantitation)
# [20] = general procedure: Fmoc solid-phase peptide synthesis; aa2-017-resin; details: whole synthesis, on resin loading (Fmoc quantitation)
# [21] = peptide synthesis; details: whole synthesis
substance,measurement,setting,value
"(2S,5S,8S,11S,14S,20S,23S,26S,29S,32S,35S)-14-benzyl-32-cyclopentyl-N,N,1,2,7,11,13,19,20,25,26,29,31,34-tetradecamethyl-5,8,23-tris(2-methylpropyl)-3,6,9,12,15,18,21,24,27,30,33,37-dodecaoxo-1,4,7,10,13,16,19,22,25,28,31,34-dodecazacycloheptatriacontane-35-carboxamid",isolated mass,[1]; scale 0.0375 mmol,25.6 mg
same,isolated yield,[1]; scale 0.0375 mmol,54%
"(3S,6S,9S,12S,15S,18S,21S,24S,30S,33S,36S)-21-benzyl-3,6,10,15,16,22,24,28,33,34-decamethyl-9,12,18,30-tetrakis(2-methylpropyl)-1,4,7,10,13,16,19,22,25,28,31,34-dodecazabicyclo[34.3.0]nonatriacontane-2,5,8,11,14,17,20,23,26,29,32,35-dodecaone",isolated mass,[1]; scale 0.0389 mmol,23.8 mg
same,isolated yield,[1]; scale 0.0389 mmol,52%
"(3S,6S,12S,15S,18S,21S,24S,27S,30S,33S)-27-benzyl-6,7,10,13,15,19,21,22,28,30-decamethyl-3,18,24-tris(2-methylpropyl)-12-propan-2-yl-1,4,7,10,13,16,19,22,25,28,31-undecazabicyclo[31.3.0]hexatriacontan-2,5,8,11,14,17,20,23,26,29,32-undecaone",isolated mass,[1]; scale 0.0379 mmol,7.07 mg
same,isolated yield,[1]; scale 0.0379 mmol,17%
"(3S,9S,12S,18S,21S,24S,27S,30S,33S)-18,33-dibenzyl-1,3,4,10,12,13,21,22,28,30-decamethyl-9,24,27-tris(2-methylpropyl)-1,4,7,10,13,16,19,22,25,28,31-undecazacyclotritriacontan-2,5,8,11,14,17,20,23,26,29,32-undecaone",isolated mass,[1]; scale 0.025 mmol,7.03 mg
same,isolated yield,[1]; scale 0.025 mmol,25%
Fmoc-MeAla-Leu-Ala-MeVal-MeAsn-pip,crude LC-MS purity,[1],95.0 area %
same,crude yield,[2]; scale 0.0535 mmol,97.0%
Fmoc-MeAla-Leu-McLeu-Ala-Gly-MePhe-MeAla-Leu-MeAla-Phe-Gly-OH,crude LC-MS purity,[1],100 area %
same,crude yield,[3],47.7%
Fmoc-MeAla-Leu-McLeu-Ala-MeGly(cPent)-MeAsp-NMe2,crude LC-MS purity,[1],98.0 area %
same,crude yield,[4]; scale 0.0376 mmol,80.2%
Fmoc-MeAla-Leu-McLeu-Ala-MePhe-Gly-MeAla-Leu-Ala-MeLeu-Gly-bAla(2-Me2)-MeAsp-NMe2,crude LC-MS purity,[1],97.9 area %
same,crude yield,[4]; scale 0.0411 mmol,81.5%
Fmoc-MeAla-Leu-McLeu-Ala-MePhe-Gly-MeAla-Leu-Ala-MeLeu-MeAla-Asn(Trt)-Gly-OH,crude LC-MS purity,[1],100 area %
same,crude yield,[4]; scale 0.0258 mmol,66.6%
Fmoc-MeAla-Leu-McLeu-Ala-MePhe-Gly-MeAla-Leu-MePhe-MeAla-Ala-MeLeu-Ala-MeVal-MeGly-OH,crude LC-MS purity,[1],100 area %
same,crude yield,[4]; scale 0.0371 mmol,62.8%
Fmoc-MeAla-Leu-MeGly-Ala-Leu-MePhe-Ala-Pro-Ala-McLeu-MeAsp-pip,crude LC-MS purity,[1],97.6 area %
same,crude yield,[5],83.1%
Fmoc-MeAla-Leu-MeGly-Ala-Leu-MePhe-Ala-Pro-Ala-MeVal-MeAsn-pip,crude LC-MS purity,[1],98.8 area %
same,crude yield,[2]; scale 0.0526 mmol,93.9%
Fmoc-MeAla-Leu-MeGly-Ala-Leu-MePhe-MeAla-Gly-MePhe-Pro-Ala-MeLeu-Gly-MeVal-D-MeAsp-NMe2,crude LC-MS purity,[1],98.0 area %
same,crude yield,[4]; scale 0.0395 mmol,83.6%
Fmoc-MeAla-Leu-MeGly-MeAla-Ala-MeGly(cPent)-MeAsp-NMe2,crude LC-MS purity,[1],98.5 area %
same,crude yield,[6],79.1%
Fmoc-MeAla-Leu-MeGly-MeAla-Ala-MeVal-MeAsn-pip,crude LC-MS purity,[1],95.0 area %
same,crude yield,[2]; scale 0.0527 mmol,94.9%
Fmoc-MeAla-Leu-MeGly-MeAla-Leu-MePhe-Ala-MeChg-D-3-MeAbu-OH,crude LC-MS purity,[1],100 area %
same,crude yield,[7],82.2%
Fmoc-MeAla-Leu-MeGly-MeAla-Leu-MePhe-MeAla-Gly-Leu-MeLeu-Ala-MeChg-MeAsp-pip,crude yield,[8],85.1%
same,crude LC-MS purity,[1],97.9 area %
Fmoc-MeAla-Leu-MeGly-MeAla-Leu-MePhe-MeAla-Gly-Leu-MeLeu-MeAla-Ala-MeGly(cPent)-MeAsp-NMe2,crude LC-MS purity,[1],97.2 area %
same,crude yield,[4]; scale 0.0379 mmol,81.9%
Fmoc-MeAla-Leu-MeLeu-Ala-Gly-MePhe-MeAla-Leu-Gly-D-MeVal-MeAsp-NMe2,crude yield,[9],78.1%
same,crude LC-MS purity,[1],97.8 area %
Fmoc-MeAla-Leu-MeLeu-Ala-MePhe-Ala-MeLeu-Gly-MeAsp-NMe2,crude yield,[10],81.0%
same,crude LC-MS purity,[1],96.2 area %
Fmoc-MeAla-Leu-MeLeu-MeAla-Gly-Aib-MeAsp-NMe2,crude LC-MS purity,[1],97.2 area %
same,crude yield,[11],79.1%
Fmoc-MeAla-McLeu-Ala-MeGly-MePhe-Leu-McLeu-Ala-Ala-Pro-OH,crude LC-MS purity,[1],98.3 area %
same,crude yield,[4]; scale 0.0389 mmol,64.3%
Fmoc-MeAla-MeLeu-Ala-MeLeu-MePhe-Leu-MeAla-Ala-MeGly(cPent)-MeAsp-NMe2,crude LC-MS purity,[1],96.3 area %
same,crude yield,[4]; scale 0.0373 mmol,71.0%
Fmoc-MeAla-MeLeu-Ala-MeVal-MeAsp-pip,crude LC-MS purity,[1],96.9 area %
same,crude yield,[12],84.9%
Fmoc-MeAla-MeLeu-Gly-MeVal-Asp-NMe2,crude yield,[13],78.6%
same,crude LC-MS purity,[1],94.7 area %
Fmoc-MeAla-MeLeu-Gly-bAla(2-Me2)-D-3-MeAbu-OH,crude LC-MS purity,[1],98.3 area %
same,crude yield,[14],69.6%
Fmoc-[NMeA]L[NMeA]FP-OH,crude yield,[15],77.9%
same,crude LC-MS purity,[1],97.7 area %
Fmoc-[NMeA]L[NMeL]AAP-OH,crude LC-MS purity,[1],99.0 area %
same,crude yield,[4]; scale 0.0391 mmol,74.6%
Fmoc-[NMeA]L[NMeL]A[NMeA]GY(tBu)-OH,crude LC-MS purity,[1],98.1 area %
same,crude yield,[16],53.0%
Fmoc-[NMeA]L[NMeL]A[NMeF]G[NMeA]L[NMeF]PA[NMeL][NMeA]S(tBu)G-OH,crude LC-MS purity,[1],98.8 area %
same,crude yield,[4]; scale 0.0253 mmol,70.3%
Fmoc-[NMeA]L[NMeL]A[NMeF]G[NMeL]AA-OH,crude LC-MS purity,[1],100 area %
same,crude yield,[17],51.8%
Fmoc-[NMeA]L[Sar]AL[NMeF]AP[NMeA]K(Boc)P-OH,crude LC-MS purity,[1],100 area %
same,crude yield,[18],76.0%
Fmoc-[NMeA]L[Sar]AL[NMeF][NMeA]G[NMeF][NMeA]A[NMeL][NMeA]GV-OH,crude LC-MS purity,[1],99.6 area %
same,crude yield,[4]; scale 0.0276 mmol,77.3%
Fmoc-[NMeA]L[Sar][NMeA]A[NMeV]G-OH,crude LC-MS purity,[1],100 area %
same,crude yield,[19],50.1%
Fmoc-[NMeA]L[Sar][NMeA]L[NMeF]A[NMeV]P-OH,crude yield,[20],82.7%
same,crude LC-MS purity,[1],100 area %
Fmoc-[NMeA]L[Sar][NMeA]L[NMeF][NMeA]GL[NMeL]A[NMeL][Aib]-OH,crude LC-MS purity,[1],100 area %
same,crude yield,[4]; scale 0.0299 mmol,80.0%
Fmoc-[NMeA]L[Sar][NMeA]L[NMeF][NMeA]GL[NMeL][NMeA]AAP-OH,crude LC-MS purity,[1],100 area %
same,crude yield,[4]; scale 0.0391 mmol,77.2%
H-MeAla-Leu-MeGly-Ala-MePhe-Leu-MeAla-Leu-Gly-MeVal-MeAsp-pip,isolated yield,[21],66%
